Results taken from the supplement of paper PMC6289059.
The other results are listed elsewhere or left out. Many values rest on one well or one pass, so single values are uncertain.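 Hepatocyte-like cells derived from human stem cells with CRISPR-disrupted DGUOK model liver mtDNA depletion syndrome. Each well's ATP signal was scored against other wells on the same plate, and drugs scoring 3 or above were primary hits.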

These compounds were tested on DGUOK Δ14/Δ5 iPSC-derived hepatocyte-like cells (SV20) (assay: ATP level (CellTiter-Glo luminescence) Z score relative to plate distribution, under 2-DG glycolysis block; higher = more cellular ATP (rescue of mitochondrial ATP production)). Details: 5 µM; treatment time: day 15 to day 20 of differentiation (5 days); 2-deoxy-D-glucose: 20 mM for 24 h before assay.

SMILES	ATP level
CC(C)(Sc1cc(C(C)(C)C)c(O)c(C(C)(C)C)c1)Sc1cc(C(C)(C)C)c(O)c(C(C)(C)C)c1	inactive: 0.916
COc1cc(-c2coc3cc(OC)c(OC)c(OC)c3c2=O)cc(OC)c1OC	inactive: -1.47
C[C@]12CCC3c4ccc(OC(=O)c5ccccc5)cc4CCC3C1CCC2=O (some centres not stated)	inactive: -15.3
Oc1ccc(Cl)c2cccnc12	inactive: -3.03
Nc1c(Br)cc(Br)cc1CN[C@H]1CC[C@H](O)CC1	inactive: -1.27
CCC(=O)c1ccc(O)cc1	inactive: 0.548
COc1ccc(-c2c(O)c3c(OC)c4c(cc3oc2=O)OC(C)(C)C=C4)cc1	inactive: 0.404
CC(=O)N[C@@H](CCC(N)=O)C(=O)O	inactive: 1.26
CC(=O)NO	inactive: -1.16
CN1CCCN=C1COC(=O)C(O)(c1ccccc1)C1CCCCC1 (configuration not stated)	inactive: -0.217
CC(C)(Oc1ccc(Cl)cc1)C(=O)O	inactive: 1.12
OC[C@@H](O)C(O)[C@H](O)CO	inactive: -4.56
CCCCCCCCCCC[C@@H](C[C@@H]1OC(=O)[C@H]1CCCCCC)OC(=O)[C@H](CC(C)C)NC=O	inactive: 0.212
COc1ccc(-c2oc3ccccc3c(=O)c2OC)cc1	inactive: -1.62
O=C1O[C@H](CO)[C@@H](O)[C@H](O)[C@H]1O	active: 3.43
C=CCCCCCCCCCCCC(O)CC(O)COC(C)=O (configuration not stated)	inactive: 2.87
CC(C)(S)[C@@H](N)C(=O)O	inactive: 1.99
O=C(O)C1CSCN1 (configuration not stated)	inactive: -0.138
O=C(O)CCCN1C(=O)c2cccc3cccc(c23)C1=O	inactive: 2.82
CO[C@H]1C[C@H](O[C@H]2[C@H](C)[C@@H](O[C@@H]3O[C@H](C)C[C@H](N(C)C)[C@H]3OC(C)=O)[C@@H](C)C[C@@]3(CO3)C(=O)[C@H](C)[C@@H](OC(C)=O)[C@@H](C)[C@@H](C)OC(=O)[C@@H]2C)O[C@@H](C)[C@@H]1OC(C)=O	inactive: 1.11
Cc1cccc(C)c1NC(=O)C1CCCCN1C (configuration not stated)	inactive: 0.0366
COc1ccc(C2C(=O)c3ccccc3C2=O)cc1	inactive: 0.63
COc1cc(/C=C/C(=O)N2CCC=CC2=O)cc(OC)c1OC	inactive: 1.08

Arranged by SMILES length (smallest number first): some entries from above
SMILES	ATP level
CC(C)(S)[C@@H](N)C(=O)O	inactive: 1.99
OC[C@@H](O)C(O)[C@H](O)CO	inactive: -4.56
CC(=O)N[C@@H](CCC(N)=O)C(=O)O	inactive: 1.26
COc1ccc(C2C(=O)c3ccccc3C2=O)cc1	inactive: 0.63
O=C(O)CCCN1C(=O)c2cccc3cccc(c23)C1=O	inactive: 2.82

(continued)

SMILES	ATP level
CN(C)c1ccc2nc3ccc(=[N+](C)C)cc-3sc2c1	inactive: -5.58
N#Cc1ccc2[nH]cc(CCCCN3CCN(c4ccc5oc(C(N)=O)cc5c4)CC3)c2c1	inactive: 1.7
CN1C(C(=O)Nc2ccccn2)=C(O)c2sccc2S1(=O)=O	active: 9.21
COc1cc(OC)c2c(OC)c(-c3ccc4c(c3)OCO4)c(=O)oc2c1	inactive: -1.02
Cc1ncc([N+](=O)[O-])n1CC(O)CCl (configuration not stated)	inactive: -13.1
C[C@]12C=CC(=O)C=C1CC[C@@H]1[C@@H]2[C@@H](O)C[C@@]2(C)[C@H]1CC[C@]2(O)C(=O)COP(=O)(O)O	inactive: 1.1
C[C@]12CC[C@H]3C(=CCc4cc(O)ccc43)[C@@H]1CCC2=O	inactive: -0.736
N=C(N)N	inactive: -0.144
Cc1c(C(N)=O)cc([N+](=O)[O-])cc1[N+](=O)[O-]	inactive: 0.704
C=C[C@H]1CN2CC[C@H]1C[C@@H]2[C@@H](O)c1ccnc2ccc(OC)cc12	inactive: 1.6
Oc1ccc(Cl)c2c1CCC2	inactive: 1.09
CS(=O)(=O)c1ccc(C2=C(c3ccccc3)C(=O)OC2)cc1	inactive: 1.05
COc1ccc2c(c1OC)OC[C@@H](c1ccc(OC)c(OC)c1OC)C2	inactive: -1.69
Cc1ccnc2c1NC(=O)c1cccnc1N2C1CC1	inactive: 1.46
CN(C)CCC=C1c2ccccc2CCc2ccccc21	inactive: -6.21
C#C[C@]1(O)CC[C@H]2[C@@H]3CCc4cc(OC5CCCC5)ccc4[C@H]3CC[C@@]21C	inactive: -1.42
Cc1[nH]c(=O)c(C#N)cc1-c1ccncc1	active: 3.16
COC(=O)C[C@H]1C(C)(C)C(=O)[C@@H]2CC3=C(CC[C@]4(C)C3=CC(=O)O[C@H]4c3ccoc3)[C@@]1(C)C2=O	inactive: -2.15
C=C1C(=O)[C@]23[C@H](CC[C@@H]1[C@@H]2O)[C@]12CO[C@@]3(O)[C@H](O)[C@H]1C(C)(C)CC[C@@H]2O	inactive: -0.889
O=C(Nc1ccccc1)c1ccccc1O	inactive: -2.4
COCC1=C(C(=O)OC(C)OC(=O)OC(C)C)N2C(=O)[C@@H](NC(=O)/C(=N\OC)c3csc(N)n3)[C@H]2SC1 (some centres not stated)	inactive: -3.42
CCN(CC)CCOC(=O)C(c1ccccc1)C1CCCCC1 (configuration not stated)	inactive: -0.433
O=C(CCCN1CCC(O)(c2ccc(Br)cc2)CC1)c1ccc(F)cc1	inactive: -1.86

SMILES	ATP level
CNCC[C@H](Oc1cccc2ccccc12)c1cccs1	inactive: -9.47
CC(=O)c1ccc2c(c1)N(CCCN1CCC(CCO)CC1)c1ccccc1S2	inactive: -11.7
CC(C)CCCC(C)C1CCC2C3CCC4CCCCC4(C)C3CCC12C (configuration not stated)	inactive: -1.53
CCCCC(CC)CN1CN(CC(CC)CCCC)CC(C)(N)C1 (configuration not stated)	inactive: 1.95
COc1cc2c(cc1OC)C(=O)C(CC1CCN(Cc3ccccc3)CC1)C2 (configuration not stated)	inactive: 0.647
CCOc1ccc(C(=O)c2ccc(OC)c(O)c2O)cc1	inactive: 0.745
COc1ccc(Cc2cnc(N)nc2N)cc1OC	inactive: 0.0464
N=C(N)NC(=O)c1nc(Cl)c(N)nc1N	inactive: -0.462
CCCCOC(=O)c1ccc(N)cc1	inactive: -5.94
O=C(Nc1ccc(C(=O)O)c(O)c1)c1ccccc1	inactive: 1.33
CC[C@H]1OC(=O)[C@H](C)[C@@H](O[C@H]2C[C@@](C)(OC)[C@@H](O)[C@H](C)O2)[C@H](C)[C@@H](O[C@@H]2O[C@H](C)C[C@H](N(C)C)[C@H]2O)[C@](C)(OC)C[C@@H](C)C(=O)[C@H](C)[C@@H](O)[C@]1(C)O	inactive: -2.19
C[C@H]1COC2=C1C(=O)C(=O)c1c2ccc2c1CCCC2(C)C	inactive: -0.863
CCCCC1=NC2(CCCC2)C(=O)N1Cc1ccc(-c2ccccc2-c2nnn[nH]2)cc1	active: 6.19
NS(=O)(=O)c1cc2c(cc1Cl)N=CNS2(=O)=O	inactive: -0.195
CNS(=O)(=O)Cc1ccc2[nH]cc(CCN(C)C)c2c1	inactive: -3.51
O=C(CCCl)NCc1ccccc1	inactive: 0.179
CN[C@H](CC(C)C)C(=O)N[C@H]1C(=O)N[C@@H](CC(N)=O)C(=O)N[C@H]2C(=O)N[C@H]3C(=O)N[C@H](C(=O)N[C@H](C(=O)O)c4cc(O)cc(O)c4-c4cc3ccc4O)[C@H](O)c3ccc(c(Cl)c3)Oc3cc2cc(c3O[C@@H]2O[C@H](CO)[C@@H](O)[C@H](O)[C@H]2O[C@H]2C[C@](C)(N)[C@H](O)[C@H](C)O2)Oc2ccc(cc2Cl)[C@H]1O	inactive: -9.01
CCC(CCC(C)C1CCC2C3CCC4CC(O)CCC4(C)C3CCC12C)C(C)C (configuration not stated)	inactive: 2.08
NC(=O)c1ncn([C@@H]2O[C@H](CO)[C@@H](O)[C@H]2O)n1	inactive: -0.195
CCOc1ccc2c(c1)C(C)=CC(C)(C)N2	inactive: -2.24
C#CCCCCCCCCCCCC(O)CC(O)CO.C=CCCCCCCCCCCCC(O)CC(O)CO (configuration not stated)	active: 5.12
CCOC(=O)[C@H](CCc1ccccc1)N[C@@H](C)C(=O)N1[C@H](C(=O)O)C[C@@H]2CCC[C@@H]21	inactive: 0.000716
CC1=CC2C(C(C)C)CCC(C)(O)C2CC1 (configuration not stated)	inactive: 1.6

In the list so far, these contain an NH in an aromatic ring.
SMILES	ATP level
N#Cc1ccc2[nH]cc(CCCCN3CCN(c4ccc5oc(C(N)=O)cc5c4)CC3)c2c1	inactive: 1.7
Cc1[nH]c(=O)c(C#N)cc1-c1ccncc1	active: 3.16
CCCCC1=NC2(CCCC2)C(=O)N1Cc1ccc(-c2ccccc2-c2nnn[nH]2)cc1	active: 6.19
CNS(=O)(=O)Cc1ccc2[nH]cc(CCN(C)C)c2c1	inactive: -3.51

More structures follow:

SMILES	ATP level
CC(C)COCC(CN(Cc1ccccc1)c1ccccc1)N1CCCC1 (configuration not stated)	inactive: -10.1
CC(=O)CC(=O)CCC(=O)O	inactive: -2.72
O=C(O)c1cc(=O)c2ccccc2o1	inactive: -1.31
COc1ccc2oc(-c3ccccc3)c(OC)c(=O)c2c1	inactive: 1.46
COc1ccc2ccc(=O)oc2c1	inactive: 1.93
Cc1cc(C2CCCCC2)n(O)c(=O)c1	inactive: -24.8
CC(C)(N=NC(C)(C)C(=N)N)C(=N)N	inactive: 0.276
O=C(O)c1cc2cc(Cl)ccc2[nH]1	inactive: 0.34
CC1(C)CC2C1CCC1(C)OC2(C)CCC1O (configuration not stated)	inactive: -1.78
CN(C)CC(c1ccc(O)cc1)C1(O)CCCCC1 (configuration not stated)	inactive: 1.32
NC(=O)[C@@H]1CCCN1C(=O)[C@H](Cc1c[nH]cn1)NC(=O)[C@@H]1CCC(=O)N1	active: 3.27
COc1c(N2CCNC(C)C2)c(F)cc2c(=O)c(C(=O)O)cn(C3CC3)c12 (configuration not stated)	inactive: -3.91
N[C@@H](C(=O)O)[C@@H](O)[C@H](O)[C@H](O)CO	inactive: -0.775
O=C(c1ccccc1)c1ccc2n1CCC2C(=O)O (configuration not stated)	inactive: -8.77
OCc1ccccc1O	inactive: -0.16
CN1Cc2c(N)cccc2C(c2ccccc2)C1 (configuration not stated)	inactive: -16.3
FC(F)(F)COCC(F)(F)F	inactive: 1.72
CCN[C@@H]1C[C@H](N)[C@@H](O[C@H]2OC(CN)=CC[C@H]2N)[C@H](O)[C@H]1O[C@H]1OC[C@](C)(O)[C@H](NC)[C@H]1O	inactive: 1.78
CC(C)(O)c1ccccc1CC[C@@H](SCC1(CC(=O)O)CC1)c1cccc(/C=C/c2ccc3ccc(Cl)cc3n2)c1	inactive: 0.688
C=C(C)[C@@H]1CC=C(CO)CC1	inactive: -2.08
CC(=O)Oc1cccc(C)c1 [meta-CRESYL ACETATE]	inactive: 0.325
CCNC(=O)/C=C/c1cccc(Br)c1	inactive: 0.585
C=CCCCCCCCCC(=O)[O-].C=CCCCCCCCCC(=O)[O-].[Zn+2]	inactive: 2.91
